Experimental findings from publication PMC5045598 are described below.

Protein sequences, listed by entry. Tags and fused reporters are not part of them.
UniProt Q02539: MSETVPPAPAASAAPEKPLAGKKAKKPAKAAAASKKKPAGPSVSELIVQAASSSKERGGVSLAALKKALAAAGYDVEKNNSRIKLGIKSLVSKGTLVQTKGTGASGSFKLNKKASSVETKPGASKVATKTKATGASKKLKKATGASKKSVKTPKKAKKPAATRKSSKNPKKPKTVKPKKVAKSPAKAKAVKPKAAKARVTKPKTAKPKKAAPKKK
UniProt Q92522: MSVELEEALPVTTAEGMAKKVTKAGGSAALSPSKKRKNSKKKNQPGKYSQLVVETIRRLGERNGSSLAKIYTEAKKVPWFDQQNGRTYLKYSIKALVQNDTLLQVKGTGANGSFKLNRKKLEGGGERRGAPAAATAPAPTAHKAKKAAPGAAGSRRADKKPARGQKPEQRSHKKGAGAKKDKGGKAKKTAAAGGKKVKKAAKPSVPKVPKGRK

Common to all, as to test: affinity purification with mass spectrometry; 6 × His-tagged H1 variant from doxycycline-induced U2OS soluble whole cell extract (NP40 lysis buffer: 150 mM NaCl, 50 mM Tris pH7.5, 10 % glycerol, 0.75 % NP40); Mono Q column, then Ni2+ chelating column (wash 50 mM imidazole, elution 500 mM imidazole); peak fractions by LC-MS/MS in duplicate; mock purification from untransfected U2OS Tet/On cells as negative control; H1.1 eluted in two Mono Q peaks, each purified separately

The target of experiment [1] is 6 × His-tagged histone H1.1 (human) (UniProt Q02539).
The target in experiment [2] is 6 × His-tagged histone H1x (human) (UniProt Q92522).
Experiment [3] has as its target 6 × His-tagged histone H1.2 (human) (UniProt P16403).

These are yes or no findings as the source states them, for the method shown. In cells and extracts the contact can be indirect. A yes stands for co-enrichment or nearness to the bait. Other partners may have been found.

B1: anti-microbial protein dermcidin (protein, UniProt P81605 20-110)
chain: YDPEAASAPGSGNPCHEASAAQKENAGEDPGLARQAPKPRKQRSSLLEKGLDGAKKAVGGLGKLGKDAVEDLESVGKGAVHDVKDVLDSVL
As for B1, the binding result in experiment [1] and in experiment [2] was “binds” each time.

B2: SRSF7 (protein, UniProt Q16629 1-238)
chain: MSRYGRYGGETKVYVGNLGTGAGKGELERAFSYYGPLRTVWIARNPPGFAFVEFEDPRDAEDAVRGLDGKVICGSRVRVELSTGMPRRSRFDRPPARRPFDPNDRCYECGEKGHYAYDCHRYSRRRRSRSRSRSHSRSRGRRYSRSRSRSRGRRSRSASPRRSRSISLRRSRSASLRRSRSGSIKGSRYFQSPSRSRSRSRSISRPRSSRSKSRSPSPKRSRSPSGSPRRSASPERMD
Take B2: the binding result in experiment [1] and in experiment [2] was “binds” throughout.

B3: DDX50 (protein, UniProt Q9BQ39 1-737)
chain: MPGKLLWGDIMELEAPLEESESQKKERQKSDRRKSRHHYDSDEKSETRENGVTDDLDAPKAKKSKMKEKLNGDTEEGFNRLSDEFSKSHKSRRKDLPNGDIDEYEKKSKRVSSLDTSTHKSSDNKLEETLTREQKEGAFSNFPISEETIKLLKGRGVTYLFPIQVKTFGPVYEGKDLIAQARTGTGKTFSFAIPLIERLQRNQETIKKSRSPKVLVLAPTRELANQVAKDFKDITRKLSVACFYGGTSYQSQINHIRNGIDILVGTPGRIKDHLQSGRLDLSKLRHVVLDEVDQMLDLGFAEQVEDIIHESYKTDSEDNPQTLLFSATCPQWVYKVAKKYMKSRYEQVDLVGKMTQKAATTVEHLAIQCHWSQRPAVIGDVLQVYSGSEGRAIIFCETKKNVTEMAMNPHIKQNAQCLHGDIAQSQREITLKGFREGSFKVLVATNVAARGLDIPEVDLVIQSSPPQDVESYIHRSGRTGRAGRTGICICFYQPRERGQLRYVEQKAGITFKRVGVPSTMDLVKSKSMDAIRSLASVSYAAVDFFRPSAQRLIEEKGAVDALAAALAHISGASSFEPRSLITSDKGFVTMTLESLEEIQDVSCAWKELNRKLSSNAVSQITRMCLLKGNMGVCFDVPTTESERLQAEWHDSDWILSVPAKLPEIEEYYDGNTSSNSRQRSGWSSGRSGRSGRSGGRSGGRSGRQSRQGSRSGSRQDGRRRSGNRNRSRSGGHKRSFD
Regarding B3, the binding result in experiment [3] is “binds”.

B4: nucleolar RNA binding protein EBP2 (protein, UniProt Q99848 1-306)
chain: MDTPPLSDSESESDESLVTDRELQDAFSRGLLKPGLNVVLEGPKKAVNDVNGLKQCLAEFKRDLEWVERLDVTLGPVPEIGGSEAPAPQNKDQKAVDPEDDFQREMSFYRQAQAAVLAVLPRLHQLKVPTKRPTDYFAEMAKSDLQMQKIRQKLQTKQAAMERSEKAKQLRALRKYGKKVQTEVLQKRQQEKAHMMNAIKKYQKGFSDKLDFLEGDQKPLAQRKKAGAKGQQMRKGPSAKRRYKNQKFGFGGKKKGSKWNTRESYDDVSSFRAKTAHGRGLKRPGKKGSNKRPGKRTREKMKNRTH
Turning to B4, the binding entry in experiment [3] is reported as “binds”.

B5: CCNL1 (protein, UniProt Q9UK58 1-526)
chain: MASGPHSTATAAAAASSAAPSAGGSSSGTTTTTTTTTGGILIGDRLYSEVSLTIDHSLIPEERLSPTPSMQDGLDLPSETDLRILGCELIQAAGILLRLPQVAMATGQVLFHRFFYSKSFVKHSFEIVAMACINLASKIEEAPRRIRDVINVFHHLRQLRGKRTPSPLILDQNYINTKNQVIKAERRVLKELGFCVHVKHPHKIIVMYLQVLECERNQTLVQTAWNYMNDSLRTNVFVRFQPETIACACIYLAARALQIPLPTRPHWFLLFGTTEEEIQEICIETLRLYTRKKPNYELLEKEVEKRKVALQEAKLKAKGLNPDGTPALSTLGGFSPASKPSSPREVKAEEKSPISINVKTVKKEPEDRQQASKSPYNGVRKDSKRSRNSRSASRSRSRTRSRSRSHTPRRHYNNRRSRSGTYSSRSRSRSRSHSESPRRHHNHGSPHLKAKHTRDDLKSSNRHGHKRKKSRSRSQSKSRDHSDAAKKHRHERGHHRDRRERSRSFERSHKSKHHGGSRSGHGRHRR
For B5, the binding result in experiment [1], in experiment [2] and in experiment [3] was “binds” throughout.

B6: Hakai (protein, UniProt Q75N03 1-491)
chain: MDHTDNELQGTNSSGSLGGLDVRRRIPIKLISKQANKAKPAPRTQRTINRMPAKAPPGDEEGFDYNEEERYDCKGGELFANQRRFPGHLFWDFQINILGEKDDTPVHFCDKCGLPIKIYGRMIPCKHVFCYDCAILHEKKGDKMCPGCSDPVQRIEQCTRGSLFMCSIVQGCKRTYLSQRDLQAHINHRHMRAGKPVTRASLENVHPPIAPPPTEIPERFIMPPDKHHMSHIPPKQHIMMPPPPLQHVPHEHYNQPHEDIRAPPAELSMAPPPPRSVSQETFRISTRKHSNLITVPIQDDSNSGAREPPPPAPAPAHHHPEYQGQPVVSHPHHIMPPQQHYAPPPPPPPPISHPMPHPPQAAGTPHLVYSQAPPPPMTSAPPPITPPPGHIIAQMPPYMNHPPPGPPPPQHGGPPVTAPPPHHYNPNSLPQFTEDQGTLSPPFTQPGGMSPGIWPAPRGPPPPPRLQGPPSQTPLPGPHHPDQTRYRPYYQ
In the case of B6, the binding entry in experiment [1], in experiment [2] and in experiment [3] was “binds” throughout.

B7: SRP68 (protein, UniProt Q9UHB9 1-627)
chain: MAAEKQVPGGGGGGGSGGGGGSGGGGSGGGRGAGGEENKENERPSAGSKANKEFGDSLSLEILQIIKESQQQHGLRHGDFQRYRGYCSRRQRRLRKTLNFKMGNRHKFTGKKVTEELLTDNRYLLLVLMDAERAWSYAMQLKQEANTEPRKRFHLLSRLRKAVKHAEELERLCESNRVDAKTKLEAQAYTAYLSGMLRFEHQEWKAAIEAFNKCKTIYEKLASAFTEEQAVLYNQRVEEISPNIRYCAYNIGDQSAINELMQMRLRSGGTEGLLAEKLEALITQTRAKQAATMSEVEWRGRTVPVKIDKVRIFLLGLADNEAAIVQAESEETKERLFESMLSECRDAIQVVREELKPDQKQRDYILEGEPGKVSNLQYLHSYLTYIKLSTAIKRNENMAKGLQRALLQQQPEDDSKRSPRPQDLIRLYDIILQNLVELLQLPGLEEDKAFQKEIGLKTLVFKAYRCFFIAQSYVLVKKWSEALVLYDRVLKYANEVNSDAGAFKNSLKDLPDVQELITQVRSEKCSLQAAAILDANDAHQTETSSSQVKDNKPLVERFETFCLDPSLVTKQANLVHFPPGFQPIPCKPLFFDLALNHVAFPPLEDKLEQKTKSGLTGYIKGIFGFRS
As to B7, the binding entry in experiment [1], in experiment [2] and in experiment [3] was “binds” in each case.

B8: SRP72 (protein, UniProt O76094 1-671)
chain: MASGGSGGVSVPALWSEVNRYGQNGDFTRALKTVNKILQINKDDVTALHCKVVCLIQNGSFKEALNVINTHTKVLANNSLSFEKAYCEYRLNRIENALKTIESANQQTDKLKELYGQVLYRLERYDECLAVYRDLVRNSQDDYDEERKTNLSAVVAAQSNWEKVVPENLGLQEGTHELCYNTACALIGQGQLNQAMKILQKAEDLCRRSLSEDTDGTEEDPQAELAIIHGQMAYILQLQGRTEEALQLYNQIIKLKPTDVGLLAVIANNIITINKDQNVFDSKKKVKLTNAEGVEFKLSKKQLQAIEFNKALLAMYTNQAEQCRKISASLQSQSPEHLLPVLIQAAQLCREKQHTKAIELLQEFSDQHPENAAEIKLTMAQLKISQGNISKACLILRSIEELKHKPGMVSALVTMYSHEEDIDSAIEVFTQAIQWYQNHQPKSPAHLSLIREAANFKLKYGRKKEAISDLQQLWKQNPKDIHTLAQLISAYSLVDPEKAKALSKHLPSSDSMSLKVDVEALENSAGATYIRKKGGKVTGDSQPKEQGQGDLKKKKKKKKGKLPKNYDPKVTPDPERWLPMRERSYYRGRKKGKKKDQIGKGTQGATAGASSELDASKTVSSPPTSPRPGSAATVSASTSNIIPPRHQKPAGAPATKKKQQQKKKKGGKGGW
Turning to B8, the binding entry in experiment [1], in experiment [2] and in experiment [3] was “binds” each time.
